Data reported in the supplement of paper PMC5949888.
Most values lie at the floor of the assay. Slopes are relative: functional sequences can read slightly below zero.

The substances below were run on Saccharomyces cerevisiae PS128 hsf1 delta, HSF1(1-493) fusion (assay: growth estimate (transactivation domain function in HSF1 fusion, heat-shock survival) (a.u. (slope of normalised read count over time)); higher = stronger growth at 37°C, i.e. more transactivation activity). Details: library: random library.
Substance LMQRKPLFPQI has a growth estimate of less than -0.25.
NNFRDVLIFSRFGEYGSDYC was tested, and the growth estimate was -0.154.
In the case of DFVSPLLRRG, the growth estimate was less than -0.25.
FESILRCSFVCARSGATLNA was tested, and the growth estimate was less than -0.25.
Substance RWLQSFDKLFNGSSILRARR has a growth estimate of less than -0.25.
Work on DIRDVRPFASLVIQNRI yielded a growth estimate of less than -0.25.
Substance GSRFPPGLPL has a growth estimate of less than -0.25.
Work on SCRRELGG yielded a growth estimate of less than -0.25.
AADIASQEARARSYQFAE was tested, and the growth estimate was less than -0.25.
VGGLWREW gave a growth estimate of less than -0.25.
QPTGPYLLRRGAW was tested, and the growth estimate was less than -0.25.
PFGCVRTV gave a growth estimate of less than -0.25.
RNSVTKSGLTA showed a growth estimate of less than -0.25.
GSTTGRALV gave a growth estimate of less than -0.25.
With NAGGEFYVDLASTPLRSNHE the growth estimate was less than -0.25.
FDPCRQVHG gave a growth estimate of less than -0.25.
DRVGFVNRAYLTCQPAQFRD was tested, and the growth estimate was less than -0.25.
Substance RLPYTSRSPTSSHMFRLVSE has a growth estimate of less than -0.25.
CLGMLYNQA showed a growth estimate of less than -0.25.
VELKVIFPLTALCCVNGTWN gave a growth estimate of less than -0.25.
Work on RRA yielded a growth estimate of less than -0.25.
For EVLNRWGGGTR, the growth estimate was less than -0.25.
LDETN was tested, and the growth estimate was less than -0.25.
WPVGFAPHGLIDSE was tested, and the growth estimate was less than -0.25.
LGRMGHPMPLILAPLSRRHA gave a growth estimate of less than -0.25.
GQGGIFRGSLGARSCGEVSC showed a growth estimate of less than -0.25.
In the case of KVPGRRLDGRCLYQALVIPR, the growth estimate was less than -0.25.
Substance GGGNFMVGSIAIQ has a growth estimate of less than -0.25.
Work on SIRRTRVYLSPGLNRHGSYA yielded a growth estimate of less than -0.25.
Work on LSSTL yielded a growth estimate of less than -0.25.
For SVIMPRWITKADTNGARGRR, the growth estimate was less than -0.25.
VCCGYLLRLRAV was tested, and the growth estimate was less than -0.25.
TYAHEAALVHVIWCPVV was tested, and the growth estimate was less than -0.25.
LIFATVQLRWGLTTSVSKVA was tested, and the growth estimate was less than -0.25.
CSGHT was tested, and the growth estimate was less than -0.25.
GVSPQDYLGRTCFTKPSFGP showed a growth estimate of less than -0.25.
For IRPGLDGLVVWQGSQRLDEL, the growth estimate was less than -0.25.
KLNREVGYRVLIYGPPATKS gave a growth estimate of less than -0.25.
Substance RKAMGRC has a growth estimate of less than -0.25.
Work on PIGSPLV yielded a growth estimate of less than -0.25.
VALPMKSCPL was tested, and the growth estimate was less than -0.25.
With NLNDSHGAMVRFRTVPDYSC the growth estimate was less than -0.25.
Work on TVSTGCVLPPNKL yielded a growth estimate of less than -0.25.
With SKVLCISHSVLQAYAE the growth estimate was less than -0.25.
With KFQLPMIAGREGYAVSKRC the growth estimate was less than -0.25.
For ILIGKTGHKRVVIQVHCTGG, the growth estimate was less than -0.25.
Substance DGNLHLGNGANSRKLRGK has a growth estimate of less than -0.25.
With MNSEWSQSA the growth estimate was less than -0.25.
For MSVWQAFEVVYSIFCRKMHK, the growth estimate was less than -0.25.
With TTWDSPLCQKP the growth estimate was less than -0.25.
For CSLGTEFRGIIICRTWHREP, the growth estimate was less than -0.25.
In the case of RERGTSFASLLPSAVPLA, the growth estimate was -0.205.
Substance LVDGRCTGGI has a growth estimate of less than -0.25.
For SCSATQAKNGQIMRVGVYGE, the growth estimate was less than -0.25.
Substance SGRYTVTCRSSRTTGGELIS has a growth estimate of less than -0.25.
Substance LDFPS has a growth estimate of -0.179.
With PAL the growth estimate was less than -0.25.
Substance YQGVEP has a growth estimate of less than -0.25.
MYDFNRKWGWGPWKKAFVSR was tested, and the growth estimate was less than -0.25.
Substance LTICVHELPWHGYLSDVNSG has a growth estimate of less than -0.25.
CGSQFLLLRKVWGICIRLLA was tested, and the growth estimate was less than -0.25.
With TVNGLCRDQLSPLIIFRTKG the growth estimate was less than -0.25.
SAIYTHAITADTKGHPPRQR showed a growth estimate of less than -0.25.
Work on GVDQRLFDALPTEITKQTHQ yielded a growth estimate of less than -0.25.
In the case of GSDVS, the growth estimate was less than -0.25.
RDVGVQGRKQVVTVTLM gave a growth estimate of less than -0.25.
Substance TVYSAGSLTRV has a growth estimate of less than -0.25.
Substance HRAALG has a growth estimate of less than -0.25.
For SQGCNGGEELCIRGNERRLG, the growth estimate was less than -0.25.
In the case of PRVLGPLGVSYQTGLSQAVI, the growth estimate was less than -0.25.
In the case of KLVYMLTAHGCVAMLYATDL, the growth estimate was less than -0.25.
IDLRAYRCNADARRLRHYHC gave a growth estimate of less than -0.25.
In the case of VCKPAACIKHLGNGILIPAR, the growth estimate was less than -0.25.
For TRGVADWG, the growth estimate was less than -0.25.
RGL gave a growth estimate of less than -0.25.
In the case of RFVVLPVKDVNLPYAKPRRR, the growth estimate was less than -0.25.
With ELLAGCLPSLRRQTE the growth estimate was less than -0.25.
RWSAT showed a growth estimate of less than -0.25.
In the case of LSCDLFEFNRATSQMS, the growth estimate was less than -0.25.
Substance KSPTASS has a growth estimate of less than -0.25.
Substance VRIERQRT has a growth estimate of less than -0.25.
RLPRCELRIPRYQSGAHLNR gave a growth estimate of less than -0.25.
QMYRQSPAFAAKSDSIG showed a growth estimate of less than -0.25.
QEASTGRMSEQIQCGAPSYF gave a growth estimate of less than -0.25.
Substance SVSR has a growth estimate of less than -0.25.
In the case of KQFARCRPPPRWAGRL, the growth estimate was -0.182.
With AMSSYVGASCHAFLVRGSQA the growth estimate was less than -0.25.
GSEEDRIQQIVLR showed a growth estimate of less than -0.25.
IDHP showed a growth estimate of -0.245.
GYSSCSTSWCGNAFLYSATV gave a growth estimate of less than -0.25.
LVRGMATQWYVFGVVGPL showed a growth estimate of less than -0.25.
For CGDIA, the growth estimate was less than -0.25.
Substance MGGGD has a growth estimate of less than -0.25.
Work on RSIFATKTNGSVEVRVEGYQ yielded a growth estimate of less than -0.25.
With WLRVAH the growth estimate was less than -0.25.
For TADLQGPPNVRLPESYLTEW, the growth estimate was -0.244.
Work on VIGDWLLQFSKVKLAAHRPW yielded a growth estimate of less than -0.25.
Substance KQTRRIEGF has a growth estimate of less than -0.25.
Substance KALGFSEPRQVNPDRIDIEA has a growth estimate of less than -0.25.
In the case of SGPTHKGQGIGHTSRV, the growth estimate was less than -0.25.
GVSRVHGHVAHATRAAGDFT was tested, and the growth estimate was less than -0.25.
LRDGT was tested, and the growth estimate was less than -0.25.
With ASRSTQGKRYAEYDRLEYQS the growth estimate was less than -0.25.
Substance VSAHCVNVRRSVCVESITGA has a growth estimate of less than -0.25.
Substance GGFRWVDLEMDRTRAECCS has a growth estimate of less than -0.25.
NKPLNLLRRLLLPSRAWHQG showed a growth estimate of less than -0.25.
Work on AMSKSALVETADRVVFKNTR yielded a growth estimate of less than -0.25.
With RPVSKVGARRRSRWLVMRSA the growth estimate was less than -0.25.
Substance LLMGLIRSAVSDEGAGTAWD has a growth estimate of less than -0.25.
Work on RLIVMDCLRKSFTVGRVGEA yielded a growth estimate of less than -0.25.
TGLRFDGKS was tested, and the growth estimate was less than -0.25.
Substance GSTRSATLMRSSRGHSTVLP has a growth estimate of less than -0.25.
Work on TASDKLSGFTPAMYSRGGG yielded a growth estimate of less than -0.25.
Substance MNNLRPGGSSGRVTGQSPRE has a growth estimate of less than -0.25.
YGEAGPGDRCANGHTQTMAP was tested, and the growth estimate was less than -0.25.
In the case of KLVSLLLSRVGVSGIS, the growth estimate was less than -0.25.
With LNCRTSCTVRDGGMCIVRGH the growth estimate was less than -0.25.
LHVLCWNQEFRSCPPCADST gave a growth estimate of less than -0.25.
In the case of HRDASLPTGAVPSDKVCAWP, the growth estimate was less than -0.25.
With GQGRNYTGTVIVLTGV the growth estimate was -0.229.
For SLGGSGQRIWGPIYVAASRP, the growth estimate was less than -0.25.
For VIHIAPRIGT, the growth estimate was less than -0.25.
RHYGPRVPRHCP was tested, and the growth estimate was less than -0.25.
TRQVRFDQPGVRTWRA showed a growth estimate of less than -0.25.
For IGLMR, the growth estimate was less than -0.25.
PGLLRWRRV was tested, and the growth estimate was less than -0.25.
Substance KIYAIRSSAYTHFKESYSEA has a growth estimate of less than -0.25.
In the case of LGAKWDCRMSNQ, the growth estimate was less than -0.25.
In the case of NIVQRVGGIILDRERGRDA, the growth estimate was less than -0.25.
LPSHRTNLD showed a growth estimate of less than -0.25.
Substance QDRTLGSRKIQLAVTCPITC has a growth estimate of less than -0.25.
Substance AHAS has a growth estimate of less than -0.25.
Substance CRCSFGVDRGKSTV has a growth estimate of less than -0.25.
In the case of GARMLTVADFLNNGVYLF, the growth estimate was less than -0.25.
For SQDRLMLKWVESLRL, the growth estimate was less than -0.25.
With SRSRLWKGYVVRSHVVSL the growth estimate was less than -0.25.
In the case of PSKHEFQGYAREGAHSRQCR, the growth estimate was less than -0.25.
CKPIVGCLRRSMFKQVSRPT gave a growth estimate of less than -0.25.
In the case of RERLEWLDTR, the growth estimate was less than -0.25.
DAVAYSKTRVQFNSSRVPEL showed a growth estimate of less than -0.25.
Substance RRRN has a growth estimate of less than -0.25.
GTTRCPDTHKVREQGPWAIL gave a growth estimate of less than -0.25.
Work on RQLGSNIDRGRTRDKRACGW yielded a growth estimate of less than -0.25.
GVCTGHGPSEAAC gave a growth estimate of -0.235.
RLNTGRTLLRLNIPGRSPSL gave a growth estimate of less than -0.25.
With VFVVTFELLGNIHRVQRSIG the growth estimate was less than -0.25.
LNRSNKYAMLPSAGFLTRPG showed a growth estimate of less than -0.25.
CQLSG showed a growth estimate of less than -0.25.
LRRFCLLMPG gave a growth estimate of less than -0.25.
With HRCFSP the growth estimate was less than -0.25.
In the case of LLGTEAGLAGPGRTTHLMVA, the growth estimate was less than -0.25.
For GEYIVAIRQIFPVGRVTMSR, the growth estimate was less than -0.25.
WVQRLRSVAPMVRSVWPGRA gave a growth estimate of -0.246.
With IAETTKRWFSTESPPLR the growth estimate was less than -0.25.
LLGKRVVTRPRYDSRRRRGY gave a growth estimate of less than -0.25.
In the case of IQTSRAHPYGNGLYDMWARY, the growth estimate was less than -0.25.
